Results of single-concentration screens

Each number is a percent effect as filed.
The controls that fix the scale are not given in the record; negative values are as filed.
This is an unselected part of the compounds tested.
Two or more numbers in one place are separate tests of the same structure; such repeats can differ widely.

Mtb cholesterol medium: 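Phenotypic screen: M. tuberculosis growth, cholesterol and DPPC medium, 4 days; the read-out is not stated. Compounds at 50 µM. Direction is inferred from retests: higher values go with more growth inhibition. Of about 69,000 compounds tested this way, about 370 (0.54%) reached 50% or more in at least one test.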
Mtb glucose medium: 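Growth of Mycobacterium tuberculosis over 3 days (7H9 medium with glucose and tyloxapol); the read-out is not stated. Tested at 50 µM. The record gives no direction; compounds that gave an IC50 in retests scored well above the rest, so higher reads as more growth inhibition. Size under these conditions: about 69,000 compounds, about 760 of them at 50% or above in at least one test.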

compound	Mtb cholesterol medium	Mtb glucose medium
O=C(O)C(F)(F)F.[H][C@@]12COC[C@]1(COCC(=O)N(C)C)CN(Cc1csc(C)n1)C2	7.354	14.34
COCCOc1ncccc1C(=O)N(C)c1ccc(OC)c(OC)c1	-3.53	-25.08 & 1.512
Cc1cc(C)c2cc(CNC3CCCCC3)c3nn(C)c(=O)n3c2c1	5.863	32.66
Cc1nccn1-c1cc(CNC(=O)CCNC(=O)OC(C)(C)C)ccn1	-3.855 & -5.525	-22.32
CS(=O)(=O)NCc1cncc2c1CCN(CC1CCOC1)C2.Cl.Cl (stereo not drawn)	-12.83	-29.32 & -10.12
Cc1ccc(N2CCCC(NC(=O)C(C)(C)C#N)C2=O)cc1 (stereo not drawn)	-19.42	-6.551
O=C1CCC2(CCN(Cc3ncccn3)CC2)CN1CCCO	-23.55	9.659
Cc1noc(C)c1-c1cccc(C2CCN(CC(=O)N(C)C)CC2)n1	-1.697 & -4.931	-34.02
O=C(O)C(F)(F)F.O=C(O)C(F)(F)F.[H][C@@]12CCCO[C@]1([H])[C@H](N(C)Cc1cccnc1)CN2C(=O)c1ccoc1	-12.5	-32.75
Cn1cnc(NC(=O)C2CC(=O)N(c3cccc(F)c3)C2)n1 (stereo not drawn)	-20.12 & -12.65	-40.1
CC(CCc1ccco1)NC(=O)Nc1cc(C(F)(F)F)c[nH]c1=O (stereo not drawn)	59.33	78.27
Cc1cccc(Cn2c(=O)[nH]c3csnc3c2=O)c1	-21.43	-0.3461 & -2.583
CCc1[nH]c2c(CNc3cncc(C(=O)N(C)C)n3)cc(C)cc2c1C	7.946	-14.58
O=C1CCNc2cc3c(cc2CN1Cc1ccco1)OCO3	18.84	36.09
CCC(CN1CCCCC1)NC(=O)C1(c2cccc(F)c2)CC1.O=C(O)CC(O)(CC(=O)O)C(=O)O (stereo not drawn)	-5.568 & 2.515	-20.24
O=S(=O)(CC1CCCO1)Nc1cc(Cl)ccc1-n1cccn1 (stereo not drawn)	17.06	15.79
CCCOc1cccc(C(=O)Oc2cc(=O)n3cccc(C)c3n2)c1	3.465	17.88
COC(C)(C)c1noc(C2(C#N)CCCCC2)n1	-5.411	23.6 & -2.049
Cc1nc(N2CCN(C(=O)C3CCCC3)CC2)c2c(n1)c(C)nn2C	-21.08	2.374
O=C(O)C(F)(F)F.O=C(O)C(F)(F)F.c1csc(CN2CCOCC3(CCN(C4CCOCC4)C3)C2)n1 (stereo not drawn)	-15.62	-4.266
Cc1cc(C(F)(F)F)n2nc(C3CCCN(S(C)(=O)=O)C3)cc2n1 (stereo not drawn)	-1.441 & 0.775	-4.878
Cn1ccc(C(=O)N2CCN(c3ccccn3)CC2)cc1=O	11.98	-3.073 & 15.64
CCC(C)(NCc1cccc(NC(C)=O)c1)c1nc(C)cs1 (stereo not drawn)	-0.9813	5.464 & -38.36
CCc1cnc(NC(=O)NC2CCN(C3CCCC3)CC2)s1	-11.84	-13.08
CN(C)CCNC(=O)c1ccccc1NC(=O)c1cc(Cl)ccc1Cl	-18.78	-5.526
CCN(CCn1cccn1)Cc1nc(-c2ccoc2)oc1C	-33.45	-10.87
CC(C)c1cc(C(=O)NCC2(C(N)=O)CCOCC2)nn1C(C)(C)C	-21.73	15.78
Cc1noc(CN2CCN(Cc3cccs3)CC2)n1	-31.93	-11.73
CN(Cc1ccccc1)CC(C)(C)NC(=O)c1cnns1	10.37	20.9
O=C1CCc2cc(NC(=O)C3CCCN3c3nccs3)ccc2N1 (stereo not drawn)	0.4917	-13.56
Cc1nc(CN2CCCC(c3cc(C(F)(F)F)[nH]n3)C2)cs1 (stereo not drawn)	26.11	27.9
COCc1nc(C(=O)NS(=O)(=O)c2ccc(Cl)cc2F)cs1	9.696	-18.1
Cc1cc(C)c2c(N(C)CC3CCN(CC(C)C)C3)ncnc2n1 (stereo not drawn)	5.375	20.98
CS(=O)(=O)N1CCC2(CCN(Cc3nccs3)CC2)CC1.O=C(O)C(F)(F)F	4.224	-15.86 & -0.6745
Cc1ncsc1C(=O)NC1CCN(CCC(=O)Nc2ccccc2)CC1	-13.27	-14.47
COc1ccc(CNc2cnn(C)c(=O)c2Cl)cc1	13.35	-9.567
CCCc1noc(CCC(=O)N2CCCC2c2ccsc2)n1 (stereo not drawn)	3.959	11.86
CSc1ncccc1C(=O)N(C)CCc1scnc1C	2.217 & -2.977	1.35
NC1CCN(c2nccn3c(=O)[nH]nc23)CC1	-36.83	-26.12
O=C(CN1CCCCC1Cn1cncn1)NCCc1ccsc1 (stereo not drawn)	-15.73	-39.75
Cc1cc(C(=O)NC2CCCN(c3ccccc3)C2=O)on1 (stereo not drawn)	29.47	-26.52

Repeated from the top, 4 entries:

| compound | Mtb cholesterol medium | Mtb glucose medium |
|---|---|---|
| `O=C(O)C(F)(F)F.[H][C@@]12COC[C@]1(COCC(=O)N(C)C)CN(Cc1csc(C)n1)C2` | 7.354 | 14.34 |
| `COCCOc1ncccc1C(=O)N(C)c1ccc(OC)c(OC)c1` | -3.53 | -25.08 & 1.512 |
| `Cc1cc(C)c2cc(CNC3CCCCC3)c3nn(C)c(=O)n3c2c1` | 5.863 | 32.66 |
| `Cc1nccn1-c1cc(CNC(=O)CCNC(=O)OC(C)(C)C)ccn1` | -3.855 & -5.525 | -22.32 |

From ChEMBL document CHEMBL3988442, “University of Dundee, Small-Polar-MMV Screening Library” (2021).